Laboratory results: PubChem BioAssay AID1224828 (NIAID, 2016)
The whole screen tested about 17,000 reagents; below is a part drawn at random. 762 of all reagents (4.5%) count as active. 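Active calls include both raised and lowered p65 entry, mostly lowered; wells with fewer than 50 cells lack a z-score.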 Raw values are not corrected between plates. Unmarked entries are inactive. The numbers tell different reagents against one gene apart.

Assay: 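Knock-downs that increase or decrease LPS-induced p65 nuclear translocation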 (primary screen)
Cells: mouse RAW264.7 G9 macrophage reporter cells (GFP-p65, Tnf promoter-mCherry)
Reagents: siRNA pool against mouse genes, 100 nM
Time to read-out: 2 days siRNA transfection, then 40 min LPS before fixation
Challenge: LPS (Salmonella minnesota R595) at 10 ng/ml
Measurement: 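Microscopy ratio of nuclear to perinuclear-ring GFP-p65 signal, scaled to the plate median; gene score is the average of two replicate robust z-scores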
Scale: p65 translocation robust z-score: higher = more nuclear NF-kappaB p65 after LPS than the plate median; nuclear/cytoplasmic p65 ratio: higher = more nuclear NF-kappaB p65
Active means: 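Called active when z exceeds 3.3 or falls under -1.56 (median of Tlr4 controls), giving activity score of at least 50; no calls for control wells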
Calls: active = hit (p65 shift raised or lowered); inactive = no clear change

| target | pool no. | p65 translocation robust z-score | nuclear/cytoplasmic p65 ratio, rep 1 | nuclear/cytoplasmic p65 ratio, rep 2 | low cell count flag |
| --- | --- | --- | --- | --- | --- |
| Ccdc178 (coiled coil domain containing 178) | 1 | – | 1.23 | 1.28 | fewer than 50 cells per well; well left out of scoring |
| Gpr61 (G protein-coupled receptor 61) | 1 | -2.56 (active) | 1.08 | 1.28 | enough cells to score |
| Tbk1 (TANK-binding kinase 1) | 1 | -0.8 | 1.58 | 1.28 | enough cells to score |
| Ndrg1 (N-myc downstream regulated gene 1) | 1 | -0.66 | 1.35 | 1.27 | enough cells to score |
| Ndrg1 (N-myc downstream regulated gene 1) | 2 | -1.39 | 1.61 | 1.34 | enough cells to score |
| Sult1c2 (sulfotransferase family, cytosolic, 1C, member 2) | 1 | 0.05 | 1.46 | 1.21 | enough cells to score |
| Ctbs (chitobiase) | 1 | -0.78 | 1.54 | 1.57 | enough cells to score |
| Vps18 (VPS18 CORVET/HOPS core subunit) | 1 | -0.72 | 1.31 | 1.15 | enough cells to score |
| Klra10 (killer cell lectin-like receptor subfamily A, member 10) | 1 | 1.01 | 1.58 | 1.54 | enough cells to score |
| Gem (GTP binding protein overexpressed in skeletal muscle) | 1 | 1.57 | 1.62 | 1.59 | enough cells to score |
| Clstn2 (calsyntenin 2) | 1 | 0.71 | 1.58 | 1.45 | enough cells to score |
| Zfp459 (zinc finger protein 459) | 1 | -0.94 | 1.35 | 1.36 | enough cells to score |
| Dnm3 (dynamin 3) | 1 | -1 | 1.27 | 1.4 | enough cells to score |
| E030024N20Rik (RIKEN cDNA E030024N20 gene) | 1 | -0.75 | 1.4 | 1.24 | enough cells to score |
| Ctps2 (cytidine 5'-triphosphate synthase 2) | 1 | 1.45 | 1.61 | 1.62 | enough cells to score |
| Nrarp (Notch-regulated ankyrin repeat protein) | 1 | 0.37 | 1.81 | 1.55 | enough cells to score |
| Or56b1 (olfactory receptor family 56 subfamily B member 1) | 1 | 1.76 | 1.37 | 1.47 | enough cells to score |
| Smad9 (SMAD family member 9) | 1 | -0.5 | 1.45 | 1.51 | enough cells to score |
| Dalrd3 (DALR anticodon binding domain containing 3) | 1 | 1.53 | 1.31 | 1.67 | enough cells to score |
| Mgat5b (mannoside acetylglucosaminyltransferase 5, isoenzyme B) | 1 | 0.86 | 1.49 | 1.68 | enough cells to score |
| Memo1 (mediator of cell motility 1) | 1 | -1.41 | 1.31 | 1.29 | enough cells to score |
| Vmn2r29 (vomeronasal 2, receptor 29) | 1 | 0.88 | 1.5 | 1.72 | enough cells to score |
| Scube2 (signal peptide, CUB domain, EGF-like 2) | 1 | 0.25 | 1.5 | 1.68 | enough cells to score |
| Add2 (adducin 2) | 1 | -1.25 | 1.42 | 1.44 | enough cells to score |

In a second layout: 2 of the entries above.
Dnm3 (dynamin 3) → p65 translocation robust z-score = -1; nuclear/cytoplasmic p65 ratio, rep 1 = 1.27; nuclear/cytoplasmic p65 ratio, rep 2 = 1.4; low cell count flag = enough cells to score
E030024N20Rik (RIKEN cDNA E030024N20 gene) → p65 translocation robust z-score = -0.75; nuclear/cytoplasmic p65 ratio, rep 1 = 1.4; nuclear/cytoplasmic p65 ratio, rep 2 = 1.24; low cell count flag = enough cells to score
